# Laboratory results: the supplement of paper PMC12823440, “Inhibitors supercharge kinase turnover through native proteolytic circuits” (Nature, 2025)
# By UniProt entry, the sequences of proteins in these tests, tags left out.
# UniProt Q01974, whole entry: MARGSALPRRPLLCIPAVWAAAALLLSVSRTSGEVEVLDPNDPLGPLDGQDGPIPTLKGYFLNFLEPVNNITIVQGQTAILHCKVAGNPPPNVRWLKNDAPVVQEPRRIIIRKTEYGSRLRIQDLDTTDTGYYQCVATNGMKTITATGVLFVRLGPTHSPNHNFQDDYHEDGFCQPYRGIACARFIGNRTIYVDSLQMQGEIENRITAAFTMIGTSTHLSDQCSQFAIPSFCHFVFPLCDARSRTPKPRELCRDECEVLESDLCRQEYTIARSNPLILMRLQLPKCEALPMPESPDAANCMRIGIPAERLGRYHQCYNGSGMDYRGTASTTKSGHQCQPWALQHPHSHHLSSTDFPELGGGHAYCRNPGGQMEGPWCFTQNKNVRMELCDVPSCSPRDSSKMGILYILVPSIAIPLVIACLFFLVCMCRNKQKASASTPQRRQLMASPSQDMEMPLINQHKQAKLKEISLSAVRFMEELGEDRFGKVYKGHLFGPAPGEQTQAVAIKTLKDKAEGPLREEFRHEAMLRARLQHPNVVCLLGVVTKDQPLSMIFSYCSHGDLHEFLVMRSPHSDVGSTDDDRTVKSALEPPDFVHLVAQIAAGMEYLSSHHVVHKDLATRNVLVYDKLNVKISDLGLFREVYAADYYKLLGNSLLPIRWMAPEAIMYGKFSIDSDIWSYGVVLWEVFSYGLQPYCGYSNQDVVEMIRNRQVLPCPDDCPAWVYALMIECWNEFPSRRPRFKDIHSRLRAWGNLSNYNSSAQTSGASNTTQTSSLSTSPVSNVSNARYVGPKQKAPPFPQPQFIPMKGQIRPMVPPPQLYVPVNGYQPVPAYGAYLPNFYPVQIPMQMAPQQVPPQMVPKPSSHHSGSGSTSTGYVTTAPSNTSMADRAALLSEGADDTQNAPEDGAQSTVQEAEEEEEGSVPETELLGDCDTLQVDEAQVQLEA
# Counter-ions that a name gives are not always drawn. This is one part of the list. The calls rarely recur for the same compound in another form.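 Kinases were expressed as nanoluciferase fusions in K562 cells and luminescence was read every 4 h between 2 and 18 h as percent of control, DMSO set to 100% and a positive control to 0%. A time point counts as decreased when the signal drops significantly (2 sigma). The hit call is the authors' own, does not follow from the count of time points alone, and its rule is not shown.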
# Molecular target: ROR2 (UniProt Q01974)
# Test: number of time points (of 5) at which kinase-Nluc abundance scored as decreased, DMSO-normalised (count); higher = more persistent destabilization
# Settings: K562; 2-18 h
row,SMILES,number of time points
1,C[C@@H]1COCCN1c1nc(-c2cnc(N)cc2C(F)F)nc(N2[C@H](C)COC[C@@H]2C)n1 (2.5 µM),0
2,O=C(O)c1cc(=O)c2c(OCC(O)COc3cccc4oc(C(=O)O)cc(=O)c34)cccc2o1 [Cromolyn (sodium)] (10 µM),0
3,CCc1ccc(OCC(=O)Nc2ccc(F)c([N+](=O)[O-])c2)cc1 (10 µM),0
4,CC(C)S(=O)(=O)c1ccc2nccc(Nc3ccc4scnc4c3)c2c1 (10 µM),0
5,CN1CC[C@@H](c2c(O)cc(O)c3c(=O)cc(-c4ccc(C(F)(F)F)cc4Cl)oc23)[C@@H]1CO [Voruciclib (hydrochloride)] (10 µM),0
6,CC(C)=CC(=O)O[C@H]1Cc2cc3ccc(=O)oc3cc2OC1(C)C [Decursin] (10 µM),0
7,CC(C)C[C@@H](C(=O)Nc1ccn(C[C@@H](O)CO)n1)N1CC(Oc2ccccc2Cl)=CC1=O [Dorzagliatin] (10 µM),0
8,CC(C)N1CCN(c2ccc(Nc3ncc4cc5n(c4n3)C3(CCCCC3)CNC5=O)nc2)CC1 [Lerociclib (dihydrochloride)] (2 µM),0
9,CCCCCCCCCCCCCCCCOP(=O)([O-])OCC[N+](C)(C)C [Miltefosine] (10 µM),0
10,COCCNc1cc(NC(=O)N2CCCc3cc(CN4CCN(C)CC4=O)c(C=O)nc32)ncc1C#N [Roblitinib] (10 µM),0
11,Cc1ccc(NC(=O)c2ccc(CN(CCN(C)C)C(=O)c3cccnc3)cc2)cc1Nc1nccc(-c2cccnc2)n1 [PDGFRα kinase inhibitor 1] (10 µM),0

# Laid out differently: entries from further up
row	SMILES	number of time points
7	CC(C)C[C@@H](C(=O)Nc1ccn(C[C@@H](O)CO)n1)N1CC(Oc2ccccc2Cl)=CC1=O [Dorzagliatin] (10 µM)	0
10	COCCNc1cc(NC(=O)N2CCCc3cc(CN4CCN(C)CC4=O)c(C=O)nc32)ncc1C#N [Roblitinib] (10 µM)	0
